Assay results taken from article PMC10425460.
No constants are given. Whether binding was seen depends on the method and setting. In cells and extracts the contact can be indirect. For some assays here: A result given as binding can be weak or reduced; the word gives no strength. Where a sequence is shown, tags or fusion partners need not be part of it.

Legend:
[1] = target: T1, Exo84c:GFP (Exo84cp::Exo84c:GFP in exo84c mutant background) (Arabidopsis thaliana) (UniProt Q9SY60); experiment: co-IP; GFP-Trap_A on extracts of 10-day-old stable transgenic Arabidopsis seedlings in Nonidet P-40 buffer with 1 mM PMSF, 1 h at 4 °C; endogenous VAP27 detected by blot with a VAP27 antibody that detects VAP27-1 and -3
T1 sequence: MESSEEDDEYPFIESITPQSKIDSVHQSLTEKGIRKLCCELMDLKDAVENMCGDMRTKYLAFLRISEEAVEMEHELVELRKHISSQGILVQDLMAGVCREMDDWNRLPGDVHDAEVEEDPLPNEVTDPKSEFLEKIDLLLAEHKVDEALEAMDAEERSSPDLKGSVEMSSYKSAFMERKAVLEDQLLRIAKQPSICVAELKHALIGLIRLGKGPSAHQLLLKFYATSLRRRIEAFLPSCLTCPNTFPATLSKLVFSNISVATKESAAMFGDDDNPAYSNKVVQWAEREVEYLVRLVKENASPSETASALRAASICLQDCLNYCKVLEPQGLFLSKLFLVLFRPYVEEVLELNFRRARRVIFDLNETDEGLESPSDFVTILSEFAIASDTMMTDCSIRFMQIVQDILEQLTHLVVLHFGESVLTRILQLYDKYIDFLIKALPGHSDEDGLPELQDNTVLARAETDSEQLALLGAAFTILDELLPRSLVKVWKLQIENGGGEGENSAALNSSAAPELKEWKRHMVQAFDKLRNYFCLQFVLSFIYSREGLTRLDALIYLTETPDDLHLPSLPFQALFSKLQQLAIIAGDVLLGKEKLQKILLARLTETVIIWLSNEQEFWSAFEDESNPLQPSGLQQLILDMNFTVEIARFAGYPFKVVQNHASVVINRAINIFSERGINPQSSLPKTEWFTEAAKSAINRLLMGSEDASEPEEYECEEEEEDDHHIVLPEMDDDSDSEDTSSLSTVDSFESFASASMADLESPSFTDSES

[2] = target: T2, Exo84b:GFP (Exo84bp::Exo84b:GFP) (Arabidopsis thaliana) (UniProt Q9LTB0); experiment: as above
T2 sequence: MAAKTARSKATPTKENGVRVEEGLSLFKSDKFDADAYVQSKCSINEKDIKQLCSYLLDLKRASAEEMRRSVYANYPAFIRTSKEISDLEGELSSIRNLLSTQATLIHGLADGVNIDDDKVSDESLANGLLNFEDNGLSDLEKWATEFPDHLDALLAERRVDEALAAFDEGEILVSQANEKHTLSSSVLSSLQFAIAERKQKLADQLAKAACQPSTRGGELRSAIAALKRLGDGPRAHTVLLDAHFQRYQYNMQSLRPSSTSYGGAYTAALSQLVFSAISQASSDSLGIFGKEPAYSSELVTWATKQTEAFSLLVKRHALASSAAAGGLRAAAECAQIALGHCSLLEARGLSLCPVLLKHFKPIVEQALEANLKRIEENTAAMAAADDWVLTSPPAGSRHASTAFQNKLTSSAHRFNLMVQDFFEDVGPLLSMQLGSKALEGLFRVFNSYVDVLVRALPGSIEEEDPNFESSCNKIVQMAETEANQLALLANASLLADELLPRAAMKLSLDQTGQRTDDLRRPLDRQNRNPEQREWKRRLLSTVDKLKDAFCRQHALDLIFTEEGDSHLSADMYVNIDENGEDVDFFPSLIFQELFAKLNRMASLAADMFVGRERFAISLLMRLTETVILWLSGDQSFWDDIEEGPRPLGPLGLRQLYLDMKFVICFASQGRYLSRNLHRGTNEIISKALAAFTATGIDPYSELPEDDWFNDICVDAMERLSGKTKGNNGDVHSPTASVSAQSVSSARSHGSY

- binding [1]: binds
- binding [2]: no binding
Substance: endogenous VAP27
